# Reference: the supplement of paper PMC7666118
# Protein sequences, listed by entry. Tags and fused reporters are not part of them. Lines headed by an entry give the natural chain unless they say otherwise; changes in a name come on top.
# UniProt Q9C0H2: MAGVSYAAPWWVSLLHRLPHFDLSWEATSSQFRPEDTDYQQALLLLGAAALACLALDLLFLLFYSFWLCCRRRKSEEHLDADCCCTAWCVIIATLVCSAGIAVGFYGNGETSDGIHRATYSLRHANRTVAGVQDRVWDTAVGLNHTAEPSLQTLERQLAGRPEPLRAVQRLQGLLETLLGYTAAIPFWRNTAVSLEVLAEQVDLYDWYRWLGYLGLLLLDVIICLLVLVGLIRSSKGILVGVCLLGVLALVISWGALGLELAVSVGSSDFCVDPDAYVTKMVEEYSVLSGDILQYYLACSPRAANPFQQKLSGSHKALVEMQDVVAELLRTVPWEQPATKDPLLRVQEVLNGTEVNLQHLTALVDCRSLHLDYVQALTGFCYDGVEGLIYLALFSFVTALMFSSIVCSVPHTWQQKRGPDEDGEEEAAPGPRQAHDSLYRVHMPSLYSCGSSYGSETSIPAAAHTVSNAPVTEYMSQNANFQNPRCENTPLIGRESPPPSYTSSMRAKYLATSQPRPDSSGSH
# UniProt P62837, whole entry: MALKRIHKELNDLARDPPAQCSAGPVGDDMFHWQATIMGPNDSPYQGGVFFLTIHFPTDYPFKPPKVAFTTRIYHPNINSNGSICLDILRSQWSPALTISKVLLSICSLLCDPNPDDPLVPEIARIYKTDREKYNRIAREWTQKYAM
# UniProt Q7Z6J8: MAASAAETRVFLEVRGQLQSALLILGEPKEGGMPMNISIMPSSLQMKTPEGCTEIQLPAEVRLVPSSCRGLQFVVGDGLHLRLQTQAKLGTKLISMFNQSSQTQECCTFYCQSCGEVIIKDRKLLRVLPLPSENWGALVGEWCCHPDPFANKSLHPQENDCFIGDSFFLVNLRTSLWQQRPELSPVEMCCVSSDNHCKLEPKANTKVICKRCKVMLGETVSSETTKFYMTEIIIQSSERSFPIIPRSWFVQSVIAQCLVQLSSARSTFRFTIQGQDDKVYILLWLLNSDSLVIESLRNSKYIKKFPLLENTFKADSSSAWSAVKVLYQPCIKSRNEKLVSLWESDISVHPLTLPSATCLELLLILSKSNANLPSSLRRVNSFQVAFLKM
# UniProt Q14157: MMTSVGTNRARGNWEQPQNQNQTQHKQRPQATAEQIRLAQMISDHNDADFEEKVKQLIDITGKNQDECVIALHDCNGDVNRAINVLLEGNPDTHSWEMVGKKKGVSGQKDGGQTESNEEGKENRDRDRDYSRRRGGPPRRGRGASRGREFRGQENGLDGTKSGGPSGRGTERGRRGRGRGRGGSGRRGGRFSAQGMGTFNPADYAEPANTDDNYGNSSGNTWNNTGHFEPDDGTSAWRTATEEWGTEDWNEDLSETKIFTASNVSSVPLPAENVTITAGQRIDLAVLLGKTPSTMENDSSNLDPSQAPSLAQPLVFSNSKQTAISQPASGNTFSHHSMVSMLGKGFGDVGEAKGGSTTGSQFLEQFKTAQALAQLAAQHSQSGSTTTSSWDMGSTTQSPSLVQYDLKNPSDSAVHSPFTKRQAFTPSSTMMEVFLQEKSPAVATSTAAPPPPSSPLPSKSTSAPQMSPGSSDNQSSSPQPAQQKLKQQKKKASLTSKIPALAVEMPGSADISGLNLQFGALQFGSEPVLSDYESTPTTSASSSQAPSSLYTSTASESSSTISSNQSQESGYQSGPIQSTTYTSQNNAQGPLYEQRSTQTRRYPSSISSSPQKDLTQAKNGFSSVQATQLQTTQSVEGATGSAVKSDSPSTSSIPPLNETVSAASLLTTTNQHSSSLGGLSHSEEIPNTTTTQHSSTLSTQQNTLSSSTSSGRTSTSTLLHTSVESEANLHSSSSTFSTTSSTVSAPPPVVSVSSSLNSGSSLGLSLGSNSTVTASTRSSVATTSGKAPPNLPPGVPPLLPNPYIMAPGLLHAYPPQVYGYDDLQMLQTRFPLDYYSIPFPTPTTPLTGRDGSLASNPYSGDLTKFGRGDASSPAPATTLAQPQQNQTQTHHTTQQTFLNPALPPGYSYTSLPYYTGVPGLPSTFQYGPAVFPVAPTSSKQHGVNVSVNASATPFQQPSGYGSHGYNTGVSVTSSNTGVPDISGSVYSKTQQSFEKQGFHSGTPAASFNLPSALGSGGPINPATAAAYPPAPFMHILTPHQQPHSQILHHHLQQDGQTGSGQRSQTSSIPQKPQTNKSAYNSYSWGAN
# UniProt O14530: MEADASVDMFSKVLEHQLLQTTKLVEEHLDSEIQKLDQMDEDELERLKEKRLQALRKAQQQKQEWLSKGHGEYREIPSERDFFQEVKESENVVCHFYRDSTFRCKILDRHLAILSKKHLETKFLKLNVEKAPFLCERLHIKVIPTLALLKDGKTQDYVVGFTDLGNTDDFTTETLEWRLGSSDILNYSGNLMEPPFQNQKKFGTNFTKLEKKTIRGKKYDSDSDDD
# UniProt O95155, whole entry: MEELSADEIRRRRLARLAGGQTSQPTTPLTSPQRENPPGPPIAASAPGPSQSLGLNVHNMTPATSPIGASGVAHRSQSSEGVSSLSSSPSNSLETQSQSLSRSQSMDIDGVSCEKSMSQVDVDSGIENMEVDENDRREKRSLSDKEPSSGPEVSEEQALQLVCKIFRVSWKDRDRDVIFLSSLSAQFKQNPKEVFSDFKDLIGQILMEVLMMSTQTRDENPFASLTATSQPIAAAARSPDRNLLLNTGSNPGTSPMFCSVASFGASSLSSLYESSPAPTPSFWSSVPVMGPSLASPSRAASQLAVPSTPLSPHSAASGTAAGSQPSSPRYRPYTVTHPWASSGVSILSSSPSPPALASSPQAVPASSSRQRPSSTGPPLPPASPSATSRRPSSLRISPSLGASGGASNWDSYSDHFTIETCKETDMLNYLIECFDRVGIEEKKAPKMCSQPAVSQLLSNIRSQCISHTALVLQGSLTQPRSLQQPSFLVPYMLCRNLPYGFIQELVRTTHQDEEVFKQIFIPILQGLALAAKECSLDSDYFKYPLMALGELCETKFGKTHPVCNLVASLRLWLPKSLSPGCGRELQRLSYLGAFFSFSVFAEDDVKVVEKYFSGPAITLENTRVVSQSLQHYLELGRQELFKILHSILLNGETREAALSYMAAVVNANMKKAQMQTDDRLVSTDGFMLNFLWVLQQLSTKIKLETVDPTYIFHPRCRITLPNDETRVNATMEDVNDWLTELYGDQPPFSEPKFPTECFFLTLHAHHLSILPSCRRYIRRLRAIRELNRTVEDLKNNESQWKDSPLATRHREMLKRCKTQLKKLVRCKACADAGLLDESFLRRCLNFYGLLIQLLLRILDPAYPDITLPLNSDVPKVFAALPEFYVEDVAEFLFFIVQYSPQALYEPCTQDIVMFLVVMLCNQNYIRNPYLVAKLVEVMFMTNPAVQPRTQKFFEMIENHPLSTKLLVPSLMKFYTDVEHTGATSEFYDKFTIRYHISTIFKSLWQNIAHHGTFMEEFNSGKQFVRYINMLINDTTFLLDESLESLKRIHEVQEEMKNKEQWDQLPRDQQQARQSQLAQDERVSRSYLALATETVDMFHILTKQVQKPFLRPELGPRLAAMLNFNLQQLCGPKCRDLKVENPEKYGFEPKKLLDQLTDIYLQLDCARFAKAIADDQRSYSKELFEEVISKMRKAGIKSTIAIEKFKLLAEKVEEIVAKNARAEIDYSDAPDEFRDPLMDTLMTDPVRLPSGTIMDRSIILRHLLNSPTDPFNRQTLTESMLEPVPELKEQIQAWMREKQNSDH
# UniProt Q8N0Z6: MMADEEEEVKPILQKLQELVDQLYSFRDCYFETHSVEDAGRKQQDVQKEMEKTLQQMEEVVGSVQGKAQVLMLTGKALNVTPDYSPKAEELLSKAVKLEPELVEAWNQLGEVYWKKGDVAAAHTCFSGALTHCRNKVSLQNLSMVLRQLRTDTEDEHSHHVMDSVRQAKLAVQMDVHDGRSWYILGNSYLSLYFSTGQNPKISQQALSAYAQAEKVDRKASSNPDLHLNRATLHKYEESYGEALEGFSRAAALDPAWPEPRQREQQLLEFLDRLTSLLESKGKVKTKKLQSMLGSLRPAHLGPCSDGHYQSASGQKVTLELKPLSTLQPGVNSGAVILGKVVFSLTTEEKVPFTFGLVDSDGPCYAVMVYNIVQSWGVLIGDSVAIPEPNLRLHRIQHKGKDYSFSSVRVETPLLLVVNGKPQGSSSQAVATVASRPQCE
# UniProt Q96K76: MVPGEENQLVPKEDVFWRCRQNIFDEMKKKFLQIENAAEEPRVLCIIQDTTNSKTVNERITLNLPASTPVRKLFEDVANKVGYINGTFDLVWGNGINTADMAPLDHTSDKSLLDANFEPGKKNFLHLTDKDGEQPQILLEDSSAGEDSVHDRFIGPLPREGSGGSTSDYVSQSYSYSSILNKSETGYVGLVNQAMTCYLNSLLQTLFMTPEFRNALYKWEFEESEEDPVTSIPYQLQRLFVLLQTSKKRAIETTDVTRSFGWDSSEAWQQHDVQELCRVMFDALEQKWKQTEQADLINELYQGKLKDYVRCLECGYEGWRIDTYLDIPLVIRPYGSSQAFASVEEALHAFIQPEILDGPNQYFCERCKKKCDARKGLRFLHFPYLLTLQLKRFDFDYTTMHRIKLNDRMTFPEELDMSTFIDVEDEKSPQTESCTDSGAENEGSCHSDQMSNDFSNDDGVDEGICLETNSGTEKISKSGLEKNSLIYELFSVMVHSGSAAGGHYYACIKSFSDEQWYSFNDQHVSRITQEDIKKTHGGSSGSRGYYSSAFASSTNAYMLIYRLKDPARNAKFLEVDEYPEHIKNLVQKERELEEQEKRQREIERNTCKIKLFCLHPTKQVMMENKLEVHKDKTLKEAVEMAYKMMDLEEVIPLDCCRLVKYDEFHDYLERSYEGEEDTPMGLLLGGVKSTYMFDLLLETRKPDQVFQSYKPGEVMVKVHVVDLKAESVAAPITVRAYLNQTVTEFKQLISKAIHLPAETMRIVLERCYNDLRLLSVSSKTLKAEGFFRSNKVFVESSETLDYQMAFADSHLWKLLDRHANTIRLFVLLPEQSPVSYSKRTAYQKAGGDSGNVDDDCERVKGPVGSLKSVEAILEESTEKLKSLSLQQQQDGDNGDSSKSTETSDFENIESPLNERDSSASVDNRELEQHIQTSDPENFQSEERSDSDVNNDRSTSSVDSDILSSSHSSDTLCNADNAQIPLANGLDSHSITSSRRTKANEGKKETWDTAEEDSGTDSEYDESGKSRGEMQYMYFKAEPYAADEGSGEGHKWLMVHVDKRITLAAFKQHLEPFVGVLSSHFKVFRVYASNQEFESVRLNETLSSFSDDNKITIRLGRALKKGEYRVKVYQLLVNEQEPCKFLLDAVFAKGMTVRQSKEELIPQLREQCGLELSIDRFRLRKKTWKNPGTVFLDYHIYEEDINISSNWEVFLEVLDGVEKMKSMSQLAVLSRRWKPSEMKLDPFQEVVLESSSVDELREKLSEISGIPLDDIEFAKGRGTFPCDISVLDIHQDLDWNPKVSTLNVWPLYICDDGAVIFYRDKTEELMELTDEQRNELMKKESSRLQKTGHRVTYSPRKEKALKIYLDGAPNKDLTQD
# UniProt P45880: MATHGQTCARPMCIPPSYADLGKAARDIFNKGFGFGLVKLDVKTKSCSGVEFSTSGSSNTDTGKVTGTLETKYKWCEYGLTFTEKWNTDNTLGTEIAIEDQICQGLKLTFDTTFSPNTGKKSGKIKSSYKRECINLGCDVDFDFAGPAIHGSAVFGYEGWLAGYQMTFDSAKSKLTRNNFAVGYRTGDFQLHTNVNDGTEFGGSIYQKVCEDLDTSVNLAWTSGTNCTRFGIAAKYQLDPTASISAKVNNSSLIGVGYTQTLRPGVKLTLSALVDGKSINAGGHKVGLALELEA
# UniProt P63027, whole entry: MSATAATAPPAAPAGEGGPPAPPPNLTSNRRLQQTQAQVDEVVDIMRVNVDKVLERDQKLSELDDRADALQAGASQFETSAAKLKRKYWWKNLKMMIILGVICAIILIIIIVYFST
# UniProt Q9UGJ1, whole entry: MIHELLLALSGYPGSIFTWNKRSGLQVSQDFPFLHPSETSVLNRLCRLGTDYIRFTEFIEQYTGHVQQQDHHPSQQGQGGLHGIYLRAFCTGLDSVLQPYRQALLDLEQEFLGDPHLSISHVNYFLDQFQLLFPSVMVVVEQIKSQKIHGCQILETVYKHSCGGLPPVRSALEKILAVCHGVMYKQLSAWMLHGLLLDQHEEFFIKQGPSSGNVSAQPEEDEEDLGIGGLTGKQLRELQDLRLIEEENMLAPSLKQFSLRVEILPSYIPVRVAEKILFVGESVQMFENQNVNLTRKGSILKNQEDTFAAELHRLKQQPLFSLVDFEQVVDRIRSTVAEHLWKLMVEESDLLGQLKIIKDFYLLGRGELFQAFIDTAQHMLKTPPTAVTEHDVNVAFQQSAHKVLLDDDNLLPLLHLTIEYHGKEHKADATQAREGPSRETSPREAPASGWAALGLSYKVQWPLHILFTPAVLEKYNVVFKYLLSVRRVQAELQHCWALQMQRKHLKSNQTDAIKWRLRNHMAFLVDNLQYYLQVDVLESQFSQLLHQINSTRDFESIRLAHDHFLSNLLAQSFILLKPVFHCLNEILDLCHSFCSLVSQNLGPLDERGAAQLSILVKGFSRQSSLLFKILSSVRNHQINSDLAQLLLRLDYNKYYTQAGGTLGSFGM
# This is one part of the list.
# Compound: COc1ccc(Cn2ccc3cc(C)c(C(=O)NO)cc32)cc1
# Assay: dose-dependent thermal stabilisation call (2D-TPP, DLPTP, 10% FDR) (binary (1 = stabilised)); higher = stabilised by the compound
# Details: system: HL-60 intact cells; concentration range 0.04-10 µM
# Description: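 2D thermal proteome profiling in intact HL-60 cells treated with BRD-3811 (0, 0.04, 0.29, 2, 10 uM) for 90 min at 37 C, then heated 3 min at one of 12 temperatures (42-63.9 C). Soluble protein was quantified by TMT10 MS. The value is the DLPTP call of the paper: dose-dependent thermal stabilisation over all temperatures at 10% FDR (F-test of a dose-response against a flat model); one experiment, one call per tested protein.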
row,Target,dose-dependent thermal stabilisation call
1,UBR2 (UniProt Q8IWV8),inactive: 0
2,TTC37 (UniProt Q6PGP7),inactive: 0
3,WAC (UniProt Q9BTA9),inactive: 0
4,USP14 (UniProt P54578),inactive: 0
5,WBP11 (UniProt Q9Y2W2),inactive: 0
6,TTYH3 (UniProt Q9C0H2),inactive: 0
7,UTRN (UniProt P46939),inactive: 0
8,VPS29 (UniProt Q9UBQ0),inactive: 0
9,UBE2D2 (UniProt P62837),inactive: 0
10,UBR7 (UniProt Q8N806),inactive: 0
11,UBE3B (UniProt Q7Z3V4),inactive: 0
12,TTN (UniProt Q8WZ42),inactive: 0
13,VEZT (UniProt Q9HBM0),inactive: 0
14,USE1 (UniProt Q9NZ43),inactive: 0
15,VPS28 (UniProt Q9UK41),inactive: 0
16,UBXN6 (UniProt Q9BZV1),inactive: 0
17,UBE2CBP (UniProt Q7Z6J8),inactive: 0
18,UBAP2L (UniProt Q14157),inactive: 0
19,USP13 (UniProt Q92995),inactive: 0
20,TXNDC9 (UniProt O14530),inactive: 0

# A few values from the list:
# UBE2D2 (UniProt P62837) – dose-dependent thermal stabilisation call: inactive: 0
# UBXN6 (UniProt Q9BZV1) – dose-dependent thermal stabilisation call: inactive: 0

# Following part:

row,Target,dose-dependent thermal stabilisation call
1,UBE4B (UniProt O95155),inactive: 0
2,UGCGL2 (UniProt Q9NYU1),inactive: 0
3,TTC5 (UniProt Q8N0Z6),inactive: 0
4,USP47 (UniProt Q96K76),inactive: 0
5,UBR1 (UniProt Q8IWV7),inactive: 0
6,UXS1 (UniProt Q8NBZ7),inactive: 0
7,VDAC2 (UniProt P45880),inactive: 0
8,VGLL4 (UniProt Q14135),inactive: 0
9,USP12 (UniProt O75317),inactive: 0
10,TUBE1 (UniProt Q9UJT0),inactive: 0
11,TYK2 (UniProt P29597),inactive: 0
12,VAMP2 (UniProt P63027),inactive: 0
13,UBP1 (UniProt Q9NZI7),inactive: 0
14,USMG5 (UniProt Q96IX5),inactive: 0
15,VPS33B (UniProt Q9H267),inactive: 0
16,UBE3A (UniProt Q05086),inactive: 0
17,TUBGCP4 (UniProt Q9UGJ1),inactive: 0
18,UHRF1BP1L (UniProt A0JNW5),inactive: 0
19,VAT1 (UniProt Q99536),inactive: 0
20,VANGL1 (UniProt Q8TAA9),inactive: 0
